Experimental findings from PMC7748142 are described below.

Common to all, as to assay: condition: only reducing conditions (sample buffer with DTT); reducing SDS-PAGE with Western blot; same lysates as a4, boiled in sample buffer containing DTT (reducing conditions)
The target of assay [1] is peroxiredoxin 3 (PRDX3), murine lung fibroblasts (mouse (endogenous in MLFs)) (UniProt P20108).
In assay [2] the target is peroxiredoxin 3 (PRDX3), A549 cells (human (endogenous in A549)) (UniProt P30048).
Assay [3] deals with peroxiredoxin 1 (PRDX1), murine lung fibroblasts (mouse (endogenous in MLFs)) (UniProt P35700).
Assay [4] concerns the target peroxiredoxin 1 (PRDX1) (human (endogenous in HEK 293T and A549)) (UniProt Q06830).

No constants are given. Whether binding was seen depends on the method and setting.

B1: peroxiredoxin 3 (PRDX3), murine lung fibroblasts (enzyme, UniProt P20108 63-257)
chain: TPAVTQHAPYFKGTAVVNGEFKELSLDDFKGKYLVLFFYPLDFTFVCPTEIVAFSDKANEFHDVNCEVVAVSVDSHFSHLAWINTPRKNGGLGHMNITLLSDITKQISRDYGVLLESAGIALRGLFIIDPNGVVKHLSVNDLPVGRSVEETLRLVKAFQFVETHGEVCPANWTPESPTIKPSPTASKEYFEKVHQ
As for B1, the binding result in assay [1] is “no binding”.

B2: peroxiredoxin 3 (PRDX3), A549 cells (enzyme, UniProt P30048 62-256)
chain: APAVTQHAPYFKGTAVVNGEFKDLSLDDFKGKYLVLFFYPLDFTFVCPTEIVAFSDKANEFHDVNCEVVAVSVDSHFSHLAWINTPRKNGGLGHMNIALLSDLTKQISRDYGVLLEGSGLALRGLFIIDPNGVIKHLSVNDLPVGRSVEETLRLVKAFQYVETHGEVCPANWTPDSPTIKPSPAASKEYFQKVNQ
On to B2, for which the binding result in assay [2] was “no binding”.

B3: peroxiredoxin 1 (PRDX1), murine lung fibroblasts (enzyme, UniProt P35700 1-199)
chain: MSSGNAKIGYPAPNFKATAVMPDGQFKDISLSEYKGKYVVFFFYPLDFTFVCPTEIIAFSDRADEFKKLNCQVIGASVDSHFCHLAWINTPKKQGGLGPMNIPLISDPKRTIAQDYGVLKADEGISFRGLFIIDDKGILRQITINDLPVGRSVDEIIRLVQAFQFTDKHGEVCPAGWKPGSDTIKPDVNKSKEYFSKQK
As for B3, the binding entry in assay [3] was “no binding”.

B4: peroxiredoxin 1 (PRDX1) (enzyme, UniProt Q06830 1-199)
chain: MSSGNAKIGHPAPNFKATAVMPDGQFKDISLSDYKGKYVVFFFYPLDFTFVCPTEIIAFSDRAEEFKKLNCQVIGASVDSHFCHLAWVNTPKKQGGLGPMNIPLVSDPKRTIAQDYGVLKADEGISFRGLFIIDDKGILRQITVNDLPVGRSVDETLRLVQAFQFTDKHGEVCPAGWKPGSDTIKPDVQKSKEYFSKQK
As for B4, the binding entry in assay [4] is reported as “no binding”.
